Consider one substance from publication PMC7052135.

The chains behind the UniProt entries cited, without tags or fusion partners. Where a name states a change or a piece, a line headed by the entry shows the natural chain unless it says otherwise.
UniProt P42224: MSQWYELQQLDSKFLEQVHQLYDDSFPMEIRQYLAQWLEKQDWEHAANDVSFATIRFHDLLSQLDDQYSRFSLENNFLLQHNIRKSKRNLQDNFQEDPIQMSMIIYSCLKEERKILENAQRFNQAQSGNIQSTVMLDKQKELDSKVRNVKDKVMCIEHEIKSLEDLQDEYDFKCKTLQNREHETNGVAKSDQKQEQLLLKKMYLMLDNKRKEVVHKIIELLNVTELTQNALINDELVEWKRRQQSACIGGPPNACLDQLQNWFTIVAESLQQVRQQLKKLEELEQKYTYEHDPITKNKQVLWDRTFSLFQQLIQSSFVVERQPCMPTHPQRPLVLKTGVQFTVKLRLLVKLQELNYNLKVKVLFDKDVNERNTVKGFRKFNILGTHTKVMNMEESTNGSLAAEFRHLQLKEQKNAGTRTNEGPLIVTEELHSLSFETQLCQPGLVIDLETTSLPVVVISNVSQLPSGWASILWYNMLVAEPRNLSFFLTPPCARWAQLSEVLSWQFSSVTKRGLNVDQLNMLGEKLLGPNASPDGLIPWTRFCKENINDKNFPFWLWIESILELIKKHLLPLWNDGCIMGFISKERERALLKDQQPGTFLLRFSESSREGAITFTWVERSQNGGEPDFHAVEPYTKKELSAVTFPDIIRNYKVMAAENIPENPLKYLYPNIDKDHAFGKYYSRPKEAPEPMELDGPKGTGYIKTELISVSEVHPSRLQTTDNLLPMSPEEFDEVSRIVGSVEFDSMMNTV
UniProt Q96EP0: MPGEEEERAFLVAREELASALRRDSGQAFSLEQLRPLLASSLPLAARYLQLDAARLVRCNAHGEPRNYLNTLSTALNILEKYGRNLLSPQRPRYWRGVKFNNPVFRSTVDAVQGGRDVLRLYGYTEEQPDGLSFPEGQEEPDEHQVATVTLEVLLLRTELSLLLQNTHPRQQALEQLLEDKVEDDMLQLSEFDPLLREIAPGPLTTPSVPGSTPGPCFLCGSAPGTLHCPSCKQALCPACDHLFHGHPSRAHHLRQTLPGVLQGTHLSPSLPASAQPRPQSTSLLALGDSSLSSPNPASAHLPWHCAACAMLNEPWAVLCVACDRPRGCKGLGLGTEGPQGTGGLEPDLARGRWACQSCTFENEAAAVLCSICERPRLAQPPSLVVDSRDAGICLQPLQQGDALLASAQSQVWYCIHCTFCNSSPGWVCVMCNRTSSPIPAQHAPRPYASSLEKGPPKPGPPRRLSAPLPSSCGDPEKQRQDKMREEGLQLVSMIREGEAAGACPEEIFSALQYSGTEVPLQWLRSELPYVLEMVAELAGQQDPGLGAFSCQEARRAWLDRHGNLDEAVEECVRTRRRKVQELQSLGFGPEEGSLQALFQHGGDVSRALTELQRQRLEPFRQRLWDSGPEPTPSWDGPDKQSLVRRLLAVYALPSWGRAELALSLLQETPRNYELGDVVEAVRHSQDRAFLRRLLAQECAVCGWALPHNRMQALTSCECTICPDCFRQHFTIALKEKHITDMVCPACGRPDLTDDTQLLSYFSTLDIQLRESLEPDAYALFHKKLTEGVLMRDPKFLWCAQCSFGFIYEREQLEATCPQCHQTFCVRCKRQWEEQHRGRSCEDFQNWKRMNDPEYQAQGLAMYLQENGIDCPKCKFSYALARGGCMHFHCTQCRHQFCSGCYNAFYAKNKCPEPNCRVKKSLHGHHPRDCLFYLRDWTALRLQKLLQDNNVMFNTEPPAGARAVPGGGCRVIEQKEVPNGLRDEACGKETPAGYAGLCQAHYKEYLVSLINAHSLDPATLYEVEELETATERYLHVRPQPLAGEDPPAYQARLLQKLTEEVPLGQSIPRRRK

No constants are given. Whether binding was seen depends on the method and setting. In cells and extracts the contact can be indirect. Binding can be weak; no strength is given.

The target of this experiment is STAT1 mutated at Ser727 (UniProt P42224). Nature of the experiment: co-IP; both partners tagged and co-transfected in HEK293T cells; lysis buffer 150 mM NaCl, 20 mM Tris-HCl pH 7.4, 0.5 mM EDTA, 1% NP-40; protein G agarose, 4 C; some panels with IFNα (1000 IU/ml, 15 min) or Flag-LUBAC overexpression.

As to “Flag-HOIP (from UniProt Q96EP0 1-1072) (enzyme)”, the binding entry is reported as “binds”.
